Reference: patent US6710168B1 (The Trustees of the University of Princeton, priority 1999, dated 2004)

Assay: peptide synthesis
Details: for step yield: late stage modification step; for conjugation yield: conjugation step
[1] = TFA salt (deprotected products), AcOH salt (some protected intermediates)
[2] = over 2 steps, TFA salt (deprotected products), AcOH salt (some protected intermediates)

Substance | step yield [1] | further results
Glucose-C6-N-4-(4-chlorophenyl)benzyl Vancosamine-N4-4-(4-chlorophenyl)benzyl Vancomycin | 15% | 
Vancosamine-N-4-(4-chlorophenyl)benzyl, Glucose-C6-S-3-amino-5-mercapto-1,2,4-triazole Vancomycin | 90% | 
Allyl N,N′-Diallyloxycarbonyl[6-N-Acetato-glucosamino]vancomycin | 33% | 
Allyl N,N′-Dialoc-glucose-C6-N4-(4-chlorophenyl)benzyl Vancomycin |  | step yield (based on aldehyde, TFA salt (deprotected products), AcOH salt (some protected intermediates)): 61%, based on aldehyde
Glucose-C6-N-thiocarbonyl Methylamino Vancomycin | 17% | 
[2-(2,2-Dimethylacetoacetyl)-3,4,6-tri-O-benzyl-β-D-glucopyranoside]-N-CBZ-tetra-O-benzyl-diacetato Vancomycin Aglycone |  | conjugation yield [1]: 17%
N-Allyloxycarbonyl-methoxy-glycine-deleucine Vancomycin |  | step yield (over 3 steps, TFA salt (deprotected products), AcOH salt (some protected intermediates)): 58% over 3 steps
Allyl N,N′-Dialoc-glucose-C6-N-4-(4-chlorophenyl)benzoyl Vancomycin | 82% | 
Allyl N,N′-Dialoc-(6-N-thiocarbonyl Methylamino Glucose) Vancomycin | 96% | 
N,N′-Dialoc-allyl-glucose-C6-5-chloro-2-hydroxy-benzylamine Vancomycin |  | step yield (AcOH salt): 31%
N-Allyloxycarbonyl-N′-methoxyglycine Vancomycin | 62% | 
N,N′-Diallyloxycarbonyl-methoxy-glycine-deleucine Glucosamino-aspartate Vancomycin |  | conjugation yield [2]: 60% over 2 steps
N-Allyloxycarbonyl-N′-methoxyglycine [N-Acetato-vancosamino] Vancomycin | 54% | 
N,N′-Diallyloxycarbonyl-methoxy-glycine-deleucine Aspartatic Acid Vancomycin |  | step yield [2]: 62% over 2 steps
Benzyl CBZ-tri-O-Methyl p-Methoxybenzyl Diacetate Vancomycin Aglycone | 97% | 
Glucose-C6-N-5-(4-chlorophenyl)furan-1-methylene-vancosamine-N-4-(4-chlorophenyl)benzyl Vancomycin | 28% | 
Glucose-C6-N-2-quinoxaloyl-vancosamine-N-4-(4-chlorophenyl)benzyl Vancomycin | 30% | 
vancomycin |  | step yield (TFA salt): 75%
Di-{N,N′-Diallyloxycarbonyl-O-allyl-6-glucosamino Vancomycin}—C(O)CH2—(O) |  | conjugation yield [1]: 20%
